{"source": "patent US7534761B1", "about": "“Charged peptide-amphiphile solutions and self-assembled peptide nanofiber networks formed therefrom” (North Western University, priority 2002, dated 2009)", "key": {"[1]": {"test": "Mineralization of bulk PA gel (TEM, electron diffraction)", "settings": "0.05% PA, Na2HPO4 1.2 mM, 20 μL 0.25M CaCl2"}, "[2]": {"test": "Mineralization of peptide amphiphile coated Ti surfaces (2 mM CaCl2, 1.2 mM Na2HPO4)"}}}
{"substance": "C16H31O-CCCCGGGSS(P)DS(P)D (CCCCGGGSSDSD; C16 alkyl tail; phosphoserines) [SEQ ID NO 1, peptide amphiphile: alkyl tail C16H31O, structural peptide CCCCGGG, functional peptide SS*DS*D]", "values": [{"measurement": "mineral formed in bulk gel (TEM)", "setting": "[1]", "result": "nanocrystals of calcium phosphate"}, {"measurement": "orientation of crystals in bulk gel (electron diffraction)", "setting": "[1]", "result": "preferentially aligned along their c-axes"}, {"measurement": "hydroxyapatite crystals on coated titanium foil compared to mineralized titanium foil controls", "setting": "[2]; 1 hr and 24 hr mineralizations", "result": "fewer hydroxyapatite crystals"}, {"measurement": "hydroxyapatite crystal formation, 0.05% solution compared with 0.1% solution dried on titanium foil", "setting": "[2]; coating concentration 0.05% vs 0.1%", "result": "slightly greater"}]}
